Source: the supplement of paper PMC5949888
Most values lie at the floor of the assay. Slopes are relative: functional sequences can read slightly below zero.

These substances were tested on Saccharomyces cerevisiae PS128 hsf1 delta, HSF1(1-493) fusion (assay: growth estimate (transactivation domain function in HSF1 fusion, heat-shock survival) (a.u. (slope of normalised read count over time)); higher = stronger growth at 37°C, i.e. more transactivation activity). Conditions: library: random library.

Q: For RAVGNRGRDVPTTALDLTTS, which growth estimate is on record?
A: < -0.25

Q: How did the growth estimate turn out when RAVPAGQEHRRIRA was run?
A: < -0.25

Q: With RAVSYRPPPSVRFSKQQW as the substance, how does the growth estimate read?
A: < -0.25

Q: For RAVVI, which growth estimate is on record?
A: < -0.25

Q: With RAWASTTAIGRRSWIIG as the substance, how does the growth estimate read?
A: < -0.25

Q: Which growth estimate does the source give for RAYHTLLCPRPRARQVV here?
A: < -0.25

Q: Which growth estimate does the source give for RCCD here?
A: < -0.25

Q: With RCCLGDRVRAVAQVTRRGMF as the substance, how does the growth estimate read?
A: < -0.25

Q: Which growth estimate does the source give for RCEGTLE here?
A: < -0.25

Q: Which growth estimate does the source give for RCEL here?
A: < -0.25

Q: With RCFGPACEVWSR as the substance, how does the growth estimate read?
A: < -0.25

Q: For RCGCRSESRRQRGALLP, which growth estimate is on record?
A: < -0.25

Q: Which growth estimate does the source give for RCGPAFYLIYC here?
A: < -0.25

Q: Which growth estimate does the source give for RCGVC here?
A: < -0.25

Q: How did the growth estimate turn out when RCGVI was run?
A: < -0.25

Q: For RCHATEQIQRSS, which growth estimate is on record?
A: < -0.25

Q: With RCHCPTSIISMRRRRGTDIQ as the substance, how does the growth estimate read?
A: < -0.25

Q: With RCI as the substance, how does the growth estimate read?
A: < -0.25

Q: With RCIQSSNCSNRCSTGQRS as the substance, how does the growth estimate read?
A: < -0.25

Q: With RCIRDAVGPLESSKSHRAAC as the substance, how does the growth estimate read?
A: < -0.25

Q: For RCKEKRESCRSGT, which growth estimate is on record?
A: < -0.25

Q: With RCKS as the substance, how does the growth estimate read?
A: < -0.25

Q: RCKTPQTGVIRL was tested. Which growth estimate did it give?
A: < -0.25

Q: How did the growth estimate turn out when RCLEKS was run?
A: < -0.25

Q: RCLGVVSRLQL was tested. Which growth estimate did it give?
A: < -0.25

Q: RCLRCSLASTVAGVPNLD was tested. Which growth estimate did it give?
A: < -0.25

Q: With RCLSVGHLICSG as the substance, how does the growth estimate read?
A: < -0.25

Q: With RCMHPLCKA as the substance, how does the growth estimate read?
A: < -0.25

Q: How did the growth estimate turn out when RCMRGMGVPAPRNACS was run?
A: < -0.25

Q: For RCRAKDCTLSRHDAARMLKR, which growth estimate is on record?
A: < -0.25

Q: With RCRLCIE as the substance, how does the growth estimate read?
A: < -0.25

Q: For RCRLRDGSRQLLLAS, which growth estimate is on record?
A: < -0.25

Q: Which growth estimate does the source give for RCRRDASSSRVTSWETGIGG here?
A: < -0.25

Q: Which growth estimate does the source give for RCRRRSSLLFRRYLIFIVFP here?
A: < -0.25

Q: With RCS as the substance, how does the growth estimate read?
A: < -0.253

Q: RCSDQRPFMSP was tested. Which growth estimate did it give?
A: < -0.25

Q: Which growth estimate does the source give for RCSINT here?
A: < -0.25

Q: How did the growth estimate turn out when RCSQT was run?
A: < -0.25

Q: Which growth estimate does the source give for RCT here?
A: < -0.25

Q: With RCTCPGVCLRRVGDSQKGHA as the substance, how does the growth estimate read?
A: < -0.25

Q: With RCVCKPGLRCCLRVIVYTQT as the substance, how does the growth estimate read?
A: < -0.25

Q: For RCVTRLHWRLDTY, which growth estimate is on record?
A: < -0.25

Q: For RCYAQCCTVPGLKRYCGWPF, which growth estimate is on record?
A: < -0.25

Q: RCYR was tested. Which growth estimate did it give?
A: < -0.25

Q: For RDAARPNVTVPGALPPTYWA, which growth estimate is on record?
A: < -0.25

Q: Which growth estimate does the source give for RDADEAGRHLNRVSL here?
A: < -0.25

Q: With RDAIRTAKMAVLAHVMGQRT as the substance, how does the growth estimate read?
A: < -0.25

Q: Which growth estimate does the source give for RDCMPWDIL here?
A: < -0.25

Q: For RDFAHCRRKDM, which growth estimate is on record?
A: < -0.25

Q: RDFDRG was tested. Which growth estimate did it give?
A: < -0.25

Q: With RDFSCRIIEGIPRSAIQFEL as the substance, how does the growth estimate read?
A: < -0.25

Q: For RDGKAVQYLKYR, which growth estimate is on record?
A: -0.246

Q: How did the growth estimate turn out when RDGN was run?
A: < -0.25

Q: Which growth estimate does the source give for RDGNAESGR here?
A: < -0.25

Q: Which growth estimate does the source give for RDHGRINVAVPFIWRAMTRR here?
A: < -0.25

Q: Which growth estimate does the source give for RDHILTNLPRSDNMTVM here?
A: -0.163

Q: With RDIEKI as the substance, how does the growth estimate read?
A: < -0.25

Q: How did the growth estimate turn out when RDIP was run?
A: < -0.25

Q: RDISLERAA was tested. Which growth estimate did it give?
A: < -0.25

Q: For RDKCRRIVIFGVMTWFVNSN, which growth estimate is on record?
A: < -0.25

Q: For RDKRLRSSSSSARPPRPTTE, which growth estimate is on record?
A: < -0.25

Q: How did the growth estimate turn out when RDLFDVWVYRAVDQGLGPLL was run?
A: < -0.25

Q: How did the growth estimate turn out when RDLPASKW was run?
A: < -0.25

Q: RDLQRVSNANLFLAKSDTGE was tested. Which growth estimate did it give?
A: < -0.25

Q: With RDLW as the substance, how does the growth estimate read?
A: < -0.25

Q: For RDMGCVQEGTTHLLSSRPRV, which growth estimate is on record?
A: < -0.25

Q: For RDMTIGSEFDYPCRLVNVVW, which growth estimate is on record?
A: < -0.25

Q: How did the growth estimate turn out when RDMYLQ was run?
A: < -0.25

Q: How did the growth estimate turn out when RDNHSGACWSWEHRLRVRSS was run?
A: < -0.25

Q: How did the growth estimate turn out when RDNRTLDLIYILPLSPVSCL was run?
A: < -0.25

Q: Which growth estimate does the source give for RDQKTHRQGEVVEVGYPCKV here?
A: < -0.25

Q: Which growth estimate does the source give for RDQKVLH here?
A: < -0.25

Q: With RDQRLGYGITLRCRLVLDDW as the substance, how does the growth estimate read?
A: < -0.25

Q: RDRFGTYIELVAALPHVWAL was tested. Which growth estimate did it give?
A: < -0.25

Q: Which growth estimate does the source give for RDRISVTKCYCTIDDIEQGP here?
A: < -0.25

Q: How did the growth estimate turn out when RDRKSYSDLLTC was run?
A: < -0.25

Q: RDRSSRVQVVSPNKTVRRSL was tested. Which growth estimate did it give?
A: < -0.25

Q: With RDSEFRHCVAHSFFDGLVAA as the substance, how does the growth estimate read?
A: < -0.25

Q: How did the growth estimate turn out when RDSRKVSRSWNNRTEAKYD was run?
A: < -0.25

Q: With RDSVAFSIGKTLLGVGSKGV as the substance, how does the growth estimate read?
A: < -0.25

Q: Which growth estimate does the source give for RDV here?
A: < -0.25

Q: Which growth estimate does the source give for RDVGCGCGQSS here?
A: -0.245

Q: With RDVIFEIYAMT as the substance, how does the growth estimate read?
A: < -0.25

Q: Which growth estimate does the source give for RDYLADHSEIITLRRPWRRP here?
A: < -0.25

Q: For RDYSQLPWEGPSHTLA, which growth estimate is on record?
A: -0.242

Q: For REAEG, which growth estimate is on record?
A: -0.203

Q: Which growth estimate does the source give for REAGEPWSGDLSFHTQ here?
A: < -0.25

Q: Which growth estimate does the source give for RECVSVSTGACWCRLSPTKQ here?
A: < -0.25

Q: For REDHVT, which growth estimate is on record?
A: < -0.25

Q: REEICILTNCLTIYYMISVQ was tested. Which growth estimate did it give?
A: < -0.25

Q: With REFICNSSNSRILVRAGGSF as the substance, how does the growth estimate read?
A: < -0.25

Q: REGGPSELARRQSPVFGLRK was tested. Which growth estimate did it give?
A: < -0.25

Q: With REGQVGRSESVIAQLR as the substance, how does the growth estimate read?
A: < -0.25

Q: Which growth estimate does the source give for REGSIAQYR here?
A: < -0.25

Q: How did the growth estimate turn out when REGYLLY was run?
A: < -0.25

Q: How did the growth estimate turn out when REHDAVRSHWEQRNRND was run?
A: < -0.25

Q: REHGSRICEASDS was tested. Which growth estimate did it give?
A: < -0.25

Q: REIHDCAAGRPNWRPTRQDA was tested. Which growth estimate did it give?
A: < -0.25

Q: How did the growth estimate turn out when REIVFPNDNLAEYDYARSTH was run?
A: < -0.25

Q: With REKDNRFLWITYGRGGSDEN as the substance, how does the growth estimate read?
A: 0.139

Q: Which growth estimate does the source give for REKL here?
A: < -0.25

Q: With REL as the substance, how does the growth estimate read?
A: < -0.25

Q: With RELL as the substance, how does the growth estimate read?
A: < -0.25

Q: For RELLAKWLKVRRA, which growth estimate is on record?
A: < -0.25

Q: RELLFLPTSCFMLH was tested. Which growth estimate did it give?
A: < -0.25

Q: How did the growth estimate turn out when RELLMSRAQEWP was run?
A: < -0.25

Q: REPARPSRPPHPIDWEIPSC was tested. Which growth estimate did it give?
A: < -0.25

Q: For REPCTEL, which growth estimate is on record?
A: < -0.25

Q: For RERELGSPLRESWRWGSF, which growth estimate is on record?
A: < -0.25

Q: Which growth estimate does the source give for RERSIRIDGGQFKNSVGPAS here?
A: < -0.25

Q: How did the growth estimate turn out when RESAVGHMAV was run?
A: < -0.25

Q: For RESTVYTEFVQYVIGSVHRG, which growth estimate is on record?
A: < -0.25

Q: RETERSEFLRPSTVGELYNS was tested. Which growth estimate did it give?
A: < -0.25

Q: REVC was tested. Which growth estimate did it give?
A: < -0.25

Q: With REVLNHKQLLPMNLAPGGSN as the substance, how does the growth estimate read?
A: < -0.25

Q: With REVLVSDPLLVMGSPSERKN as the substance, how does the growth estimate read?
A: < -0.25

Q: With REVQTKYGRRRISEGRSPKV as the substance, how does the growth estimate read?
A: < -0.25

Q: How did the growth estimate turn out when REYPFEQGVGCPPVVCGGPA was run?
A: < -0.25

Q: For REYSTSS, which growth estimate is on record?
A: < -0.25

Q: RFAVGLRAATRQISVEQG was tested. Which growth estimate did it give?
A: < -0.25

Q: With RFCMFYLSNLFATLRLRSYA as the substance, how does the growth estimate read?
A: < -0.25

Q: Which growth estimate does the source give for RFCPKEASCNYYNRKVRQDR here?
A: < -0.25

Q: For RFGFVSAGTLVR, which growth estimate is on record?
A: < -0.25

Q: With RFGL as the substance, how does the growth estimate read?
A: < -0.25

Q: How did the growth estimate turn out when RFGSGAVEARVLYISTCAIS was run?
A: < -0.25

Q: For RFHSRGRR, which growth estimate is on record?
A: < -0.25

Q: With RFHSRPLATR as the substance, how does the growth estimate read?
A: < -0.25

Q: For RFISCWQGGTLK, which growth estimate is on record?
A: < -0.25

Q: How did the growth estimate turn out when RFLEGRPSVMRDEKLALPRD was run?
A: < -0.25

Q: For RFLVHALERILVTGRREGPG, which growth estimate is on record?
A: < -0.25

Q: RFMEK was tested. Which growth estimate did it give?
A: < -0.25

Q: How did the growth estimate turn out when RFRPLADGWLYLRYNVGDRP was run?
A: < -0.25

Q: For RFSMWARAGS, which growth estimate is on record?
A: < -0.25

Q: RFSNEFADEVMGIMGGLACP was tested. Which growth estimate did it give?
A: < -0.25

Q: How did the growth estimate turn out when RFSVHFGGSQFLLTIRSDAL was run?
A: < -0.25

Q: RFT was tested. Which growth estimate did it give?
A: < -0.25

Q: For RFTCRTILSVWRG, which growth estimate is on record?
A: < -0.25

Q: RFTLRDSCRVSISDLPRRSA was tested. Which growth estimate did it give?
A: < -0.25

Q: RFTLTRDHVVGSST was tested. Which growth estimate did it give?
A: < -0.25

Q: RFTRNGCLSYTRASLPCVCS was tested. Which growth estimate did it give?
A: < -0.25

Q: How did the growth estimate turn out when RFVCLARMTDLELAGPSFGE was run?
A: < -0.25

Q: How did the growth estimate turn out when RFVISE was run?
A: < -0.25

Q: RFYRYRPERRQRLAGTIVYT was tested. Which growth estimate did it give?
A: < -0.25

Q: How did the growth estimate turn out when RGALDIPR was run?
A: < -0.25

Q: For RGARAKILT, which growth estimate is on record?
A: < -0.25

Q: How did the growth estimate turn out when RGARFAVPRCLAYGLIAPNT was run?
A: < -0.25

Q: RGARTQRLPRMHRRLVEMLR was tested. Which growth estimate did it give?
A: < -0.25

Q: For RGASRGEQCGTLAGIPRYRV, which growth estimate is on record?
A: < -0.25
